{"sequences": {"note": "By UniProt entry, the sequences of proteins in these tests, tags left out. Where a name states a change or a piece, a line headed by the entry shows the natural chain unless it says otherwise.", "UniProt P36776": "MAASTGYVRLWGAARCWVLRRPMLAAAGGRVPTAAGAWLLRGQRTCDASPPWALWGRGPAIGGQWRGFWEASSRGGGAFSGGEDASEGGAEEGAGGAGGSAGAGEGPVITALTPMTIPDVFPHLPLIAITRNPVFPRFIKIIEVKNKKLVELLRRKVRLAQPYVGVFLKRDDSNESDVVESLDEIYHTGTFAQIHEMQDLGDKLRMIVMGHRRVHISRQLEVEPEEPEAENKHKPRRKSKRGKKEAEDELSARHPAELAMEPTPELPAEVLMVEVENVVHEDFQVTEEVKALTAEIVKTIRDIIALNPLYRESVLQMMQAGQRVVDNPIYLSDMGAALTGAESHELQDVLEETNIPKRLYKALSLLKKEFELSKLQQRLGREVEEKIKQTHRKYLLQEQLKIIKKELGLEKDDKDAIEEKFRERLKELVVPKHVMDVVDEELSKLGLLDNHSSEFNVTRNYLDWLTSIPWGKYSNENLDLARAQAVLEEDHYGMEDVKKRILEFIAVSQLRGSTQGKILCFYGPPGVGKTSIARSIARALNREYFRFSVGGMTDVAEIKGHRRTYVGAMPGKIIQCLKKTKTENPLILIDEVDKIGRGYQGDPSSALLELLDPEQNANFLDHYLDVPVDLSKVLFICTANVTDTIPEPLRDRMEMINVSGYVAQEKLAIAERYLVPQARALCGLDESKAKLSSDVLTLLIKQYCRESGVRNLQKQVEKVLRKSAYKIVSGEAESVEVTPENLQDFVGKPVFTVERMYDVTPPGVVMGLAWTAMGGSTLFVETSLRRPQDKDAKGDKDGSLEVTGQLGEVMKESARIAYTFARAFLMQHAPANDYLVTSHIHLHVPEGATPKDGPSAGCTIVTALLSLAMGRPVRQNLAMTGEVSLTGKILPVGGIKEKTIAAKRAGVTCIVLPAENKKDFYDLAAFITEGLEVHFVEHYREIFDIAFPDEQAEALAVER"}, "source": "paper PMC12807481", "binders": {"B1": {"name": "FBXO11 (endogenous) (protein, UniProt Q86XK2 1-927)", "chain": "MNSVRAANRRPRRVSRPRPVQQQQQQPPQQPPPQPPQQQPPQQQPPPPPQQQQQQQPPPPPPPPPPLPQERNNVGERDDDVPADMVAEESGPGAQNSPYQLRRKTLLPKRTACPTKNSMEGASTSTTENFGHRAKRARVSGKSQDLSAAPAEQYLQEKLPDEVVLKIFSYLLEQDLCRAACVCKRFSELANDPILWKRLYMEVFEYTRPMMHPEPGKFYQINPEEYEHPNPWKESFQQLYKGAHVKPGFAEHFYSNPARYKGRENMLYYDTIEDALGGVQEAHFDGLIFVHSGIYTDEWIYIESPITMIGAAPGKVADKVIIENTRDSTFVFMEGSEDAYVGYMTIRFNPDDKSAQHHNAHHCLEITVNCSPIIDHCIIRSTCTVGSAVCVSGQGACPTIKHCNISDCENVGLYITDHAQGIYEDNEISNNALAGIWVKNHGNPIIRRNHIHHGRDVGVFTFDHGMGYFESCNIHRNRIAGFEVKAYANPTVVRCEIHHGQTGGIYVHEKGRGQFIENKIYANNFAGVWITSNSDPTIRGNSIFNGNQGGVYIFGDGRGLIEGNDIYGNALAGIQIRTNSCPIVRHNKIHDGQHGGIYVHEKGQGVIEENEVYSNTLAGVWVTTGSTPVLRRNRIHSGKQVGVYFYDNGHGVLEDNDIYNHMYSGVQIRTGSNPKIRRNKIWGGQNGGILVYNSGLGCIEDNEIFDNAMAGVWIKTDSNPTLRRNKIHDGRDGGICIFNGGRGLLEENDIFRNAQAGVLISTNSHPILRKNRIFDGFAAGIEITNHATATLEGNQIFNNRFGGLFLASGVNVTMKDNKIMNNQDAIEKAVSRGQCLYKISSYTSYPMHDFYRCHTCNTTDRNAICVNCIKKCHQGHDVEFIRHDRFFCDCGAGTLSNPCTLAGEPTHDTDTLYDSAPPIESNTLQHN"}}, "assay_in_all_cases": "co-IP; WT or mutant LONP1-FLAG constructs immunoprecipitated from K562 cells, immunoblots of FLAG and endogenous FBXO11", "key": {"[1]": {"target": "C-terminal FLAG-tagged LONP1, wild type (UniProt P36776)"}, "LONP1^del2–66-FLAG": {"target": "LONP1^del2–66-FLAG (UniProt P36776)"}, "LONP1^del551–602-FLAG": {"target": "LONP1^del551–602-FLAG (UniProt P36776)"}}, "note": "These are yes or no findings as the source states them, for the method shown. In cells and extracts the contact can be indirect. For part of these data: Binding can be weak; no strength is given."}
{"binder": "B1", "values": [{"measurement": "binding", "setting": "[1]", "value": "binds"}, {"measurement": "binding", "setting": "LONP1^del2–66-FLAG", "value": "no binding"}, {"measurement": "binding", "setting": "LONP1^del551–602-FLAG", "value": "no binding"}]}
